Results deposited as PubChem BioAssay AID652243 (Drosophila RNAi Screening Center, 2013).
Assay: 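Knock-downs that decrease or increase androgen receptor reporter signal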 (primary screen). Cell system: Drosophila S2R+ cells. Reagent: long dsRNA against Drosophila genes. Timing: 72 h (48 h, then 24 h hormone). Conditions: synthetic androgen R1881 at 10 nM for 24 h. Measurement: 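Per-well raw luminescence of the androgen-driven firefly reporter and of the Renilla control, two replicates each, without normalisation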. Direction: firefly reporter light: higher = more light from androgen-responsive reporter; Renilla control light: higher = more constitutive control signal (cell number, transfection). Rule for the call: 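Hit when the log firefly-to-Renilla ratio dropped or increased by a fixed fold versus the mean of GFP or LacZ controls across duplicate plates; lowering cut given as 1.5 and as 3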. Meaning of the calls: active = hit: reporter lowered or raised; inactive = no hit.
In all, the deposit lists about 24,000 reagents; below is an unselected part of those with a known target gene and a result. In the full data, 246 (1%) were called active. 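Plates not normalised; calls are printed but the firefly/Renilla ratio behind them is not deposited; fold cut for lowering reported inconsistently.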 The raw values are shown without normalisation. Reagents against one gene are numbered here. Names joined by + are all predicted targets of the reagent. The record does not give: the amount of reagent.

no.	predicted target	reagent	firefly reporter light, replicate 1	firefly reporter light, replicate 2	Renilla control light, replicate 1	Renilla control light, replicate 2	Outcome
1	CG10433	1	5.00e5	9.34e5	1.60e6	3.13e6	inactive
2	CG10433	2	4.53e5	3.47e5	7.04e5	6.79e5	inactive
3	ro (rough)	1	76684	34158	1.29e6	1.28e6	inactive
4	ro (rough)	2	4.49e5	2.79e5	1.48e6	4.45e5	inactive
5	ttk (tramtrack)	1	5.74e5	5.75e5	5.93e5	4.95e5	inactive
6	ttk (tramtrack)	2	1.51e5	1.59e5	2.05e6	1.87e6	inactive
7	ttk (tramtrack)	3	3.47e5	4.41e5	8.32e5	7.21e5	inactive
8	CG6015	1	87013	1.01e5	1.20e6	1.27e6	inactive
9	CG6015	2	6.88e5	3.77e5	1.39e6	1.16e6	inactive
10	CG9410 + CG15908	1	1.44e5	1.02e5	1.11e6	1.13e6	inactive
11	CG9410 + CG15908	2	2.98e5	3.72e5	2.72e6	2.45e6	inactive
12	CG9410 + CG15908	3	4.07e5	3.38e5	8.93e5	7.76e5	inactive
13	VhaM9.7-c (Vacuolar H[+] ATPase M9.7 subunit c)	1	8.28e5	5.06e5	1.08e6	1.29e6	inactive
14	VhaM9.7-c (Vacuolar H[+] ATPase M9.7 subunit c)	2	8.58e5	8.96e5	1.32e6	1.13e6	inactive
15	gw (gawky)	1	1.15e5	84831	4.87e5	2.95e5	active
16	gw (gawky)	2	44724	73817	2.30e6	2.24e6	active
17	gw (gawky)	3	28029	15566	6645	14785	inactive
18	CG10467	1	1.78e5	2.27e5	1.89e6	2.07e6	inactive
19	CatB (Catalase B)	1	1.86e6	2.24e6	3.54e6	3.53e6	inactive
20	CatB (Catalase B)	2	6.68e5	8.30e5	5.77e5	7.19e5	inactive
21	Taf4 (TBP-associated factor 4)	1	15530	10399	1.15e5	1.27e5	inactive
22	Taf4 (TBP-associated factor 4)	2	1.78e5	2.19e5	5.60e5	4.72e5	inactive
23	tRNA:Leu-CAA-2-3 (transfer RNA:Leucine-CAA 2-3)	1	2.83e5	2.06e5	4.12e5	5.68e5	inactive
24	drl (derailed)	1	1.05e6	1.21e6	8.61e5	9.39e5	active
25	drl (derailed)	2	3.76e5	4.75e5	9.71e5	1.31e6	active
26	drl (derailed)	3					inactive
27	CG13045	1	1.15e5	2.20e5	1.08e6	1.70e6	inactive
28	CG13045	2	8.31e5	8.34e5	1.61e6	1.39e6	inactive

Next part (2 carried over from the part before).
no.	predicted target	reagent	firefly reporter light, replicate 1	firefly reporter light, replicate 2	Renilla control light, replicate 1	Renilla control light, replicate 2	Outcome
27	CG13045	1	1.15e5	2.20e5	1.08e6	1.70e6	inactive
28	CG13045	2	8.31e5	8.34e5	1.61e6	1.39e6	inactive
29	Arts + Apl	1	2.79e5	2.07e5	3.01e6	2.67e6	inactive
30	SPR (Sex peptide receptor)	1	2.73e5	3.91e5	2.06e6	2.42e6	inactive
31	SPR (Sex peptide receptor)	2	2.47e5	3.14e5	2.69e6	3.00e6	inactive
32	SPR (Sex peptide receptor)	3	8.85e5	1.05e6	1.96e6	1.92e6	inactive
33	CG14957	1	1.60e5	1.77e5	2.48e6	2.82e6	inactive
34	CG7706	1	50116	97351	5.52e5	4.05e5	inactive
35	CG7706	2	5.54e5	4.01e5	8.37e5	4.48e5	inactive
36	CG10931	1	65264	42098	1.37e6	1.37e6	inactive
37	ara (araucan)	1	6.00e5	8.67e5	7.57e5	1.20e6	inactive
38	ara (araucan)	2	2.23e5	3.49e5	6.97e5	6.33e5	inactive
39	Cdc16 (Cell division cycle 16)	1	1.71e5	1.78e5	2.49e6	2.48e6	inactive
40	capt (capulet)	1	96410	1.01e5	7.18e5	7.82e5	inactive
41	capt (capulet)	2	1.39e5	1.22e5	6.38e5	8.49e5	inactive
42	capt (capulet)	3	2.93e5	2.72e5	7.18e5	7.02e5	inactive
43	capt (capulet)	4	3.95e5	2.82e5	9.72e5	9.69e5	inactive
44	CG32052	1	2.72e5	2.47e5	2.42e6	2.27e6	inactive
45	CG32052	2	3.02e5	2.70e5	6.95e5	7.30e5	inactive
46	CG12567	1	7.10e5	6.99e5	1.05e6	1.43e6	inactive
47	dsx (doublesex)	1	1.27e5	81521	1.57e5	1.68e5	inactive
48	dsx (doublesex)	2	1.50e5	1.37e5	1.56e6	1.57e6	inactive
49	dsx (doublesex)	3	7.10e5	5.71e5	3.22e6	2.26e6	inactive
50	dsx (doublesex)	4	4.16e5	3.76e5	6.66e5	6.29e5	inactive
51	Tie (Tie-like receptor tyrosine kinase)	1	22328	65495	1.41e5	1.81e5	inactive
52	Tie (Tie-like receptor tyrosine kinase)	2	1.01e5	1.29e5	1.89e6	1.90e6	inactive
53	Tie (Tie-like receptor tyrosine kinase)	3					inactive
54	Tie (Tie-like receptor tyrosine kinase)	4					inactive
55	CG3699	1	2.35e5	3.10e5	4.83e6	3.11e6	inactive
56	CG3699	2	2.67e5	3.04e5	3.71e6	3.93e6	inactive
57	comm3	1	2.33e5	3.15e5	2.03e6	2.10e6	inactive
58	comm3	2	1.03e5	1.40e5	1.50e6	1.27e6	inactive
59	comm3	3	3.18e5	1.58e5	2.12e6	1.28e6	inactive
